PubChem BioAssay AID1508597, Cure First – 2020
Aim: 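Genes whose silencing sensitises or protects ovarian cancer cells against rucaparib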 (primary screen). Cell system: human ovarian carcinoma lines grown from tumours: OCI-P5x (papillary serous) and OCI-C5x (clear cell). Knock-down reagent: siRNA pool against human genes, 1.25 pmol siRNA per well. Timing: 72 h or 96 h, depending on the cell culture. Treatment: rucaparib 20 µM (about IC30) or vehicle, present until read-out. Rucaparib or vehicle: Rucaparib. Cell line: OCI-C5x (clear cell). Detection: 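Luminescent ATP-based viability assay read 72 or 96 h after transfection, depending on culture, given as normalised percent viability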. Scale: viability, normalised: higher = more viable cells remaining. Active means: 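a well counts as a hit if its normalised viability is under 80 percent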. Calls: active = viability under 80%; inactive = viability 80% or more.
Shown is a random part of the about 2,100 reagents, in one setting of the screen. 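Calls flag viability under 80% in either arm, not effects specific to rucaparib; the reference for percent is not stated.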 Entries without a mark were called inactive. Some reagents were tested in more than one well and are listed for each. Reagent sequences are not shown. The record does not give: the 100% reference.

PARP4 (poly(ADP-ribose) polymerase family member 4), technical replicate 1 — viability, normalised (%) = 67.5 (active)
PARP4 (poly(ADP-ribose) polymerase family member 4), technical replicate 1 — viability, normalised (%) = 41.6 (active)
PARP4 (poly(ADP-ribose) polymerase family member 4), technical replicate 2 — viability, normalised (%) = 47.5 (active)
PARP4 (poly(ADP-ribose) polymerase family member 4), technical replicate 2 — viability, normalised (%) = 37.4 (active)
PARP4 (poly(ADP-ribose) polymerase family member 4), technical replicate 3 — viability, normalised (%) = 69.1 (active)
PARP4 (poly(ADP-ribose) polymerase family member 4), technical replicate 3 — viability, normalised (%) = 40.2 (active)
NUP98 (nucleoporin 98 and 96 precursor), technical replicate 1 — viability, normalised (%) = 30.3 (active)
NUP98 (nucleoporin 98 and 96 precursor), technical replicate 1 — viability, normalised (%) = 44.1 (active)
NUP98 (nucleoporin 98 and 96 precursor), technical replicate 2 — viability, normalised (%) = 42.5 (active)
NUP98 (nucleoporin 98 and 96 precursor), technical replicate 2 — viability, normalised (%) = 32.9 (active)
NUP98 (nucleoporin 98 and 96 precursor), technical replicate 3 — viability, normalised (%) = 38.1 (active)
NUP98 (nucleoporin 98 and 96 precursor), technical replicate 3 — viability, normalised (%) = 52.2 (active)
F3 (coagulation factor III, tissue factor), technical replicate 1 — viability, normalised (%) = 56.9 (active)
F3 (coagulation factor III, tissue factor), technical replicate 2 — viability, normalised (%) = 35 (active)
F3 (coagulation factor III, tissue factor), technical replicate 3 — viability, normalised (%) = 42.2 (active)
PIN1 (peptidylprolyl cis/trans isomerase, NIMA-interacting 1), technical replicate 1 — viability, normalised (%) = 67.8 (active)
PIN1 (peptidylprolyl cis/trans isomerase, NIMA-interacting 1), technical replicate 2 — viability, normalised (%) = 61.7 (active)
PIN1 (peptidylprolyl cis/trans isomerase, NIMA-interacting 1), technical replicate 3 — viability, normalised (%) = 49.5 (active)
BAZ2B (bromodomain adjacent to zinc finger domain 2B), technical replicate 1 — viability, normalised (%) = 35 (active)
BAZ2B (bromodomain adjacent to zinc finger domain 2B), technical replicate 2 — viability, normalised (%) = 42.2 (active)
BAZ2B (bromodomain adjacent to zinc finger domain 2B), technical replicate 3 — viability, normalised (%) = 35.9 (active)

Quoted from the listing, 5 entries:
NUP98 (nucleoporin 98 and 96 precursor), technical replicate 2 — viability, normalised (%) = 42.5 (active)
NUP98 (nucleoporin 98 and 96 precursor), technical replicate 2 — viability, normalised (%) = 32.9 (active)
NUP98 (nucleoporin 98 and 96 precursor), technical replicate 3 — viability, normalised (%) = 38.1 (active)
NUP98 (nucleoporin 98 and 96 precursor), technical replicate 3 — viability, normalised (%) = 52.2 (active)
F3 (coagulation factor III, tissue factor), technical replicate 1 — viability, normalised (%) = 56.9 (active)

Further records follow.
PFKFB4 (6-phosphofructo-2-kinase/fructose-2,6-biphosphatase 4), technical replicate 1 — viability, normalised (%) = 54.1 (active)
PFKFB4 (6-phosphofructo-2-kinase/fructose-2,6-biphosphatase 4), technical replicate 2 — viability, normalised (%) = 62.5 (active)
PFKFB4 (6-phosphofructo-2-kinase/fructose-2,6-biphosphatase 4), technical replicate 3 — viability, normalised (%) = 57.9 (active)
ONECUT1 (one cut homeobox 1), technical replicate 1 — viability, normalised (%) = 38.2 (active)
ONECUT1 (one cut homeobox 1), technical replicate 2 — viability, normalised (%) = 41.5 (active)
ONECUT1 (one cut homeobox 1), technical replicate 3 — viability, normalised (%) = 40.1 (active)
DQX1 (DEAQ-box RNA dependent ATPase 1), technical replicate 1 — viability, normalised (%) = 33.8 (active)
DQX1 (DEAQ-box RNA dependent ATPase 1), technical replicate 2 — viability, normalised (%) = 49.5 (active)
DQX1 (DEAQ-box RNA dependent ATPase 1), technical replicate 3 — viability, normalised (%) = 61.5 (active)
TSSK3 (testis specific serine kinase 3), technical replicate 1 — viability, normalised (%) = 45 (active)
TSSK3 (testis specific serine kinase 3), technical replicate 2 — viability, normalised (%) = 74.1 (active)
TSSK3 (testis specific serine kinase 3), technical replicate 3 — viability, normalised (%) = 58.2 (active)
